Changes are numbered by the printed parent chain. No constants are given. Whether binding was seen depends on the method and setting. Some binding calls cover weakened binding; strength is not graded here. Tags and fused reporters may be left off the sequences shown.
Assays:
Experiment in all cases: two-hybrid
[1] = target: CAP-D2 (human condensin I subunit), two-hybrid fusion (human) (UniProt Q15021)
[2] = target: T1, CAP-D3 (human condensin II subunit), two-hybrid fusion (human) (UniProt P42695)
T1 sequence: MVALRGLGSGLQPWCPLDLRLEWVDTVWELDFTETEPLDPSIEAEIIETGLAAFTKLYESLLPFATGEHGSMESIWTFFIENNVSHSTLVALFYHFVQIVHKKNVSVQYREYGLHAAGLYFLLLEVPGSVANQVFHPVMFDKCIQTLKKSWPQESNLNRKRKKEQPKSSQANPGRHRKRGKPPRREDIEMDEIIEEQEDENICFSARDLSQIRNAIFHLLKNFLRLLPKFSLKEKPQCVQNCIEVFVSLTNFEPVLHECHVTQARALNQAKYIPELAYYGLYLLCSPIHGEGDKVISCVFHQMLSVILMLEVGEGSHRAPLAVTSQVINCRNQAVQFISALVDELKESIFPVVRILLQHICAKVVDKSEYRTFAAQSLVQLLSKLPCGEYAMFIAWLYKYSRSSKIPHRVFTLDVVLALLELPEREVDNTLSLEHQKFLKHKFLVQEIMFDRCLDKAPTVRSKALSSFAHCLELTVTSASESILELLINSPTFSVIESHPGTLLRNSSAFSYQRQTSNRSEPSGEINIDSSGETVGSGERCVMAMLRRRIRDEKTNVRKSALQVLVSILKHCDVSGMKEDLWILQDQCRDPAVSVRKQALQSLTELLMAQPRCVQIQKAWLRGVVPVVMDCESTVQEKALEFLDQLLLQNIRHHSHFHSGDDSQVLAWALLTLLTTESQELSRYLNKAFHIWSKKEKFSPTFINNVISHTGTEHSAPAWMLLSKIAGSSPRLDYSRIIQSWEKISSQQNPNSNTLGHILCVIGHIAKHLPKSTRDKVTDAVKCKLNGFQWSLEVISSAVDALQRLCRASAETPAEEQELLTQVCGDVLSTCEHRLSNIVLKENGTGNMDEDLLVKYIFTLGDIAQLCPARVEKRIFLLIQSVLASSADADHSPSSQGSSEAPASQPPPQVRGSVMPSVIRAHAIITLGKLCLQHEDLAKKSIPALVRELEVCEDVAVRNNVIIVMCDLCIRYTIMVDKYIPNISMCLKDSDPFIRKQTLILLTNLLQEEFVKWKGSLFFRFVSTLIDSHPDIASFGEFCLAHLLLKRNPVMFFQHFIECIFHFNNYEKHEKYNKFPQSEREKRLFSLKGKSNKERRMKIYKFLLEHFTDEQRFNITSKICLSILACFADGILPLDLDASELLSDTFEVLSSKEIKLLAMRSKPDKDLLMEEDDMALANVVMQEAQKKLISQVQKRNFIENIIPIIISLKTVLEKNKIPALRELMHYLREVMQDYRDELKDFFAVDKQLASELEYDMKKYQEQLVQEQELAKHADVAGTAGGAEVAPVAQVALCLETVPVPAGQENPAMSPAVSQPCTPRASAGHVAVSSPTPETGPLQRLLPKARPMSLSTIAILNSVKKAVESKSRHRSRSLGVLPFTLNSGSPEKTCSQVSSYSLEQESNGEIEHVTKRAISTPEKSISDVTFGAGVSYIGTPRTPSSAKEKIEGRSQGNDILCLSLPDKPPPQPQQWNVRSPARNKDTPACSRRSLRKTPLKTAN

Amino acid sequences for entries named in this document (tags omitted).
UniProt Q15021: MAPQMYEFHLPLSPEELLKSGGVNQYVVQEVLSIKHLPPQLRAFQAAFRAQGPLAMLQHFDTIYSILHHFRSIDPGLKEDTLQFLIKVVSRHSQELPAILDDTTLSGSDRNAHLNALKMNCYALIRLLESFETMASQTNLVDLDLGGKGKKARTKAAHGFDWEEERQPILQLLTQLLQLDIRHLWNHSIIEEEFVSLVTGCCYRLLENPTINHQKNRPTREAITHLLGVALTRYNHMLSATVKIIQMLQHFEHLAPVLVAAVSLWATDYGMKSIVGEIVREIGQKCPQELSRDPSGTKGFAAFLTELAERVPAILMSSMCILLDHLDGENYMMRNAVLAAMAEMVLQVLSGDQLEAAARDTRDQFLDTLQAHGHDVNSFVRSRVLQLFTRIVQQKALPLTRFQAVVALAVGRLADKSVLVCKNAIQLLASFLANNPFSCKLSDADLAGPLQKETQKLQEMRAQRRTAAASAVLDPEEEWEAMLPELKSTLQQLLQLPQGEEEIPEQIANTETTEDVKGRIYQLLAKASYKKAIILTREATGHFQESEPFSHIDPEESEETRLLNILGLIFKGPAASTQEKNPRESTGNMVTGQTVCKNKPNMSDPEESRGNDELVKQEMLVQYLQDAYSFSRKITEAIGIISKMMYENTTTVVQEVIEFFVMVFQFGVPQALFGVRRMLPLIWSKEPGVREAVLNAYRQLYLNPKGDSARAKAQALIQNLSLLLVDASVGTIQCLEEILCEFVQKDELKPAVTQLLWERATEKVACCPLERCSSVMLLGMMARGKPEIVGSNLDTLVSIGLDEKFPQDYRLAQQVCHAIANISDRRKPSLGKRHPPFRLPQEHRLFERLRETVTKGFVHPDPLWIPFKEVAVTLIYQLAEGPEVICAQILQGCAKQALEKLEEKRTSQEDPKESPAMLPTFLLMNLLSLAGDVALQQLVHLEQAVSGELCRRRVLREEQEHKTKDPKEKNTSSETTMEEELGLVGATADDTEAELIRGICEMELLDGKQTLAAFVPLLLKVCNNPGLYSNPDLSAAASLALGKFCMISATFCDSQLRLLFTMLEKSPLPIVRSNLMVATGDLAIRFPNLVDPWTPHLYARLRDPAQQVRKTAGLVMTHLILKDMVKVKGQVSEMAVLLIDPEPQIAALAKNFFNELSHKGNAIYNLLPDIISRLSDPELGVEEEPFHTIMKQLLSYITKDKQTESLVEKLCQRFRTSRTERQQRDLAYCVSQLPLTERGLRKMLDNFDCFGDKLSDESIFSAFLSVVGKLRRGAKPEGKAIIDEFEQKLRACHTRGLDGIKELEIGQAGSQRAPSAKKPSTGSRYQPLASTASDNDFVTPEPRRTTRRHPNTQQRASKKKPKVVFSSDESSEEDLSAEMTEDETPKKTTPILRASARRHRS

[3] = target: T2, GAL4-BD-Cnd1-m1 (Cnd1 with the cnd1-m1 mutations) (Schizosaccharomyces pombe (fission yeast)) (UniProt O94679)
T2 sequence: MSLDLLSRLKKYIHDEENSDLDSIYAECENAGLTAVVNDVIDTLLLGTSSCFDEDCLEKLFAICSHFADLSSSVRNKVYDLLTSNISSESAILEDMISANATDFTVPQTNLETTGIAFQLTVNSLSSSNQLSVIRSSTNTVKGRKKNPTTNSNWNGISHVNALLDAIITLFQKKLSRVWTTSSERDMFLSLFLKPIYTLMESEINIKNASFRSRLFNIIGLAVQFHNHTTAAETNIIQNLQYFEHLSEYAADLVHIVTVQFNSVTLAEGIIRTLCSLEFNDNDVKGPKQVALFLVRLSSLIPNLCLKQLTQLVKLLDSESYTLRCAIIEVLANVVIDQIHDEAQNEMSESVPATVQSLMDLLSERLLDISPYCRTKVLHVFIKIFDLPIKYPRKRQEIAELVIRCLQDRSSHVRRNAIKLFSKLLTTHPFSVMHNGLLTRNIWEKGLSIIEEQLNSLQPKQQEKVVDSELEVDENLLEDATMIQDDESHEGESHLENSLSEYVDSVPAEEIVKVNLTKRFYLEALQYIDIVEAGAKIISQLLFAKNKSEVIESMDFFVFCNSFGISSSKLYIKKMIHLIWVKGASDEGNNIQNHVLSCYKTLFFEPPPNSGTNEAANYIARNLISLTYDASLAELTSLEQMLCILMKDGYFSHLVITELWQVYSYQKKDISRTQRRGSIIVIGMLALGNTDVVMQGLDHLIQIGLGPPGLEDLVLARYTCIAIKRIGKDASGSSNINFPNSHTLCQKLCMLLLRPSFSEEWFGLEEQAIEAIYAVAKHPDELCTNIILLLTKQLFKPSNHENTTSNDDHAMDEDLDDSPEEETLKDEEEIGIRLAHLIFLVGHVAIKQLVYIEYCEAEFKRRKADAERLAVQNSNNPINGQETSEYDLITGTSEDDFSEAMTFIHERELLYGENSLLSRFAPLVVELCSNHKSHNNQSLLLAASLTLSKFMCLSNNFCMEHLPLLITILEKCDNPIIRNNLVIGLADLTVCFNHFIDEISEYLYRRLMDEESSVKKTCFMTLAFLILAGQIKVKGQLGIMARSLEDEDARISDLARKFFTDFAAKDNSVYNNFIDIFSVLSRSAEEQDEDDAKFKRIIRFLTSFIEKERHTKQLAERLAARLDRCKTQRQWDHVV

[4] = target: T3, GAL4-BD-Cnd1-K658E (Schizosaccharomyces pombe (fission yeast)) (UniProt O94679)
T3 sequence: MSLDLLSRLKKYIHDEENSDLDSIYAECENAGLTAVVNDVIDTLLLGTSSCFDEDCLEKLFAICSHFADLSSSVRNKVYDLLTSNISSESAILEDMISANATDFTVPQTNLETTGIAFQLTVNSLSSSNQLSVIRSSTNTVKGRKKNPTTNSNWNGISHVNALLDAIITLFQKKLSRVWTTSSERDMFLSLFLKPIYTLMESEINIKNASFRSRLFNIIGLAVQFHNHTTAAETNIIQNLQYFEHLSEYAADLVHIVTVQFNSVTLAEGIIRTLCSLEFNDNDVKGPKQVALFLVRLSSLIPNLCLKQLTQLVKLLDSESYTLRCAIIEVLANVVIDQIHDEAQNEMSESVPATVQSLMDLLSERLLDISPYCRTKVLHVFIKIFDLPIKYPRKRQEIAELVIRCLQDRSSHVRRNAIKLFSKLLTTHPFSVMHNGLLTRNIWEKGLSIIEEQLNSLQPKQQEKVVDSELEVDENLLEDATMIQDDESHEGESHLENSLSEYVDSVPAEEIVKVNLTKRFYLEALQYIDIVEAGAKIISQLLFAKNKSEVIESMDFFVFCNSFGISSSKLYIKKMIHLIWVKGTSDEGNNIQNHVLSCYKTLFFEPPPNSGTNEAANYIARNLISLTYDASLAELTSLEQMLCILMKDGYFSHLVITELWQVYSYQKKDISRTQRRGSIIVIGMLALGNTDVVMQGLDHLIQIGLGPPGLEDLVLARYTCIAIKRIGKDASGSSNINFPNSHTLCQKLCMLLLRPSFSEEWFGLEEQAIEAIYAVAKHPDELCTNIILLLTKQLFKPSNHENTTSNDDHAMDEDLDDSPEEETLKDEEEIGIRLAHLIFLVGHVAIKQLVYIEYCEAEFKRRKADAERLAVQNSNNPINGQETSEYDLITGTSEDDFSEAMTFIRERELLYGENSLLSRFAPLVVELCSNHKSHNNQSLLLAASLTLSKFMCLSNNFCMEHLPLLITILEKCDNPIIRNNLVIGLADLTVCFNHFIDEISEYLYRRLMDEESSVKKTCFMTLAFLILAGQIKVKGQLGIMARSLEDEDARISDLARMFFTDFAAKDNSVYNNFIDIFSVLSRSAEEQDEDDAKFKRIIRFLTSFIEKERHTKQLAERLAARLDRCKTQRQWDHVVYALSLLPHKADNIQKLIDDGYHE

[5] = target: T4, GAL4-BD-Cnd1 (Cnd1 condensin subunit, wild type, fused to GAL4-BD) (Schizosaccharomyces pombe (fission yeast)) (UniProt O94679)
T4 sequence: T3 sequence with E658K

B1: Med4 (human Pmc4), two-hybrid fusion (protein, UniProt Q9NPJ6 1-270)
chain: MAASSSGEKEKERLGGGLGVAGGNSTRERLLSALEDLEVLSRELIEMLAISRNQKLLQAGEENQVLELLIHRDGEFQELMKLALNQGKIHHEMQVLEKEVEKRDSDIQQLQKQLKEAEQILATAVYQAKEKLKSIEKARKGAISSEEIIKYAHRISASNAVCAPLTWVPGDPRRPYPTDLEMRSGLLGQMNNPSTNGVNGHLPGDALAAGRLPDVLAPQYPWQSNDMSMNMLPPNHSSDFLLEPPGHNKENEDDVEIMSTDSSSSSSESD
In the case of B1, the binding [1] is reported as “no binding” and the binding [2] is reported as “binds”.

B2: GAL4-AD-Cnd2 (Cnd2 condensin subunit fused to GAL4-AD) (protein, UniProt Q9Y7R3 1-742)
chain: MKRASLGGHAPVSLPSLNDDALEKKRAKENSRKQRELRRSSALHSITPRRESLNNSSPFNSSHQVPVLSNFEEWIKLATDNKINSTNTWNFALIDYFHDMSLLRDGEDINFQKASCTLDGCVKIYTSRIDSVATETGKLLSGLANDSKVLQQTEEGEDAENDDEDLQKKKERKRAQRSVKTLVKDFESIRAKKFELECSFDPLFKKMCADFDEDGAKGLLMNHLCVDQHGRIVFDSSDTVIKDLENKDVEAESQEAVVAAPIESHDTEMTNVHDNISRETLNGIYKCYFTDIDQLTICPSLQGFEFDSKGNLDVSLLKSLSDEVNMITTTSLVDNTMEKTDADAASLSSDSDGEEGHIVHALEEMAYDEENPYVDVVPKAMDESENPDFGVDTEVNMADGSTMNENYSIISTAAANGVYEYFDKSMKKNWAGPEHWRIQALRKNINNASTVFNSSNTAESSDNVSRSLSSTERKKRRELDNAIDFLQEVDVEALFTPATSSLKLPKSHWKRHNRCLLPDDYQYDSKRLLQLFLKPKMSVLPNADGEGQLQLNKALDDENDLDGIQPHGFDSDGSDNVDEGIPPYGFGDSDSPKQTPLLTPPSSSGFGDNLLLTARLAKPDMLNYAKRAKKVDVRVLKEKLWKCLDLENTIKENSINSHIEGSEMESEETNMPVKSFFSTVNQLEETYEKKELKDISTSFAFICVLHLANEHNLELTSNEDFSDVFIRPGPNLTTLEALENDV
B2 was tested, and the binding [3] was “binds”, the binding [4] was “binds” and the binding [5] was “binds”.

— article doi:10.1101/2024.06.26.600663
